For assay [1], the target named is T1, full length GST-Med19 (Drosophila) (UniProt Q9VVL6).
T1 sequence: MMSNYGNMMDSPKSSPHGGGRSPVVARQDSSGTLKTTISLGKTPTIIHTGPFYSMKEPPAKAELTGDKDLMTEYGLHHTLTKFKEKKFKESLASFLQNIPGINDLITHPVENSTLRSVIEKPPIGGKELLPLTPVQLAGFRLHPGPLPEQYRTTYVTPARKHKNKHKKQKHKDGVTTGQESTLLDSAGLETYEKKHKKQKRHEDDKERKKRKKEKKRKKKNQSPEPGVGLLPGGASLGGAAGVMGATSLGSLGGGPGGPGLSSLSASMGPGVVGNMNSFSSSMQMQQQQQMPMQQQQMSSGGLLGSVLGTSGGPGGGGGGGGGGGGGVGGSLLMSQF
Kind of assay: pull-down.

Sequences of proteins named here, by UniProt entry; tags and fusion partners are left off. A change or cut given only in a name is not applied to a line headed by its entry.
UniProt P52168: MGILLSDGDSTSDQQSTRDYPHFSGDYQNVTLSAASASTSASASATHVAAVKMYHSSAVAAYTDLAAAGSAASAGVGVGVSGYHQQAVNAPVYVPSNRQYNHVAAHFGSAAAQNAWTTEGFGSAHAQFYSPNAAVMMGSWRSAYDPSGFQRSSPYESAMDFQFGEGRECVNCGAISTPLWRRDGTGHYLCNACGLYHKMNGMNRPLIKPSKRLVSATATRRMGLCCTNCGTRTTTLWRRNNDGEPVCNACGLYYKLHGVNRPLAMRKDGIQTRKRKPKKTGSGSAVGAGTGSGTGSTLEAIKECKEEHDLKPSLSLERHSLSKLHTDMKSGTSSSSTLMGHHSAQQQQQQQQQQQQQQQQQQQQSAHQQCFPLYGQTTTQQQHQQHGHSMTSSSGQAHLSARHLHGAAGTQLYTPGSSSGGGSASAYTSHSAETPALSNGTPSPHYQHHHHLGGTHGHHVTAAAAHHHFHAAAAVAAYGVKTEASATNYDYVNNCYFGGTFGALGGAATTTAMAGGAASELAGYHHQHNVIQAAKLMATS

Assay [2] concerns the target T2, endogenous Drosophila Med19 (Drosophila (endogenous in S2 cells)) (UniProt Q9VVL6).
T2 sequence: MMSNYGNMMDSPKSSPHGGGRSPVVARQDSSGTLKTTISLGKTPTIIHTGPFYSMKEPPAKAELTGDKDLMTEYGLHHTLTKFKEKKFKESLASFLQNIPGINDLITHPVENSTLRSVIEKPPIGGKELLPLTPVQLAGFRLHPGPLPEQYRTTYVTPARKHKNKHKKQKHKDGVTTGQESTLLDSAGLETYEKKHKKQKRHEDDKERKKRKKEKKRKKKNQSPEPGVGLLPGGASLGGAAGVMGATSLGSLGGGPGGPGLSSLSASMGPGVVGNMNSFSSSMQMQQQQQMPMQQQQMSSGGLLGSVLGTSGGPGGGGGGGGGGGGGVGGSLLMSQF
The experiment in a line: co-IP.

Assay [3] concerns the target T1, full length GST-Med19 (Drosophila). Kind of assay: pull-down. This is another data set of the same source.
The target of assay [4] is T3, Med19-VC (Drosophila) (UniProt Q9VVL6).
T3 sequence: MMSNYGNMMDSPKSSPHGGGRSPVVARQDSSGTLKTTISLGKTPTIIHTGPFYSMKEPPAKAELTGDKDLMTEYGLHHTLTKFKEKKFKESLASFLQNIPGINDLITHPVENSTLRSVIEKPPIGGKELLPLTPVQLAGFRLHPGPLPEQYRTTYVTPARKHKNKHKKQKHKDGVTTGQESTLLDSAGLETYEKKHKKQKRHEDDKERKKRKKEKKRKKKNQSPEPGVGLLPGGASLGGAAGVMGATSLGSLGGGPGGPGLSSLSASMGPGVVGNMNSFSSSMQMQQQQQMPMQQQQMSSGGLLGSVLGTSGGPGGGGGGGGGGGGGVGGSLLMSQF
Kind of assay: split reporter.

Assay [5] deals with full-length recombinant GST-Pnr (Drosophila) (UniProt P52168). Kind of assay: pull-down.
The target of assay [6] is T4, GST fusion of Med1 largest isoform A (Med1^A) (Drosophila) (UniProt Q9VP05).
T4 sequence: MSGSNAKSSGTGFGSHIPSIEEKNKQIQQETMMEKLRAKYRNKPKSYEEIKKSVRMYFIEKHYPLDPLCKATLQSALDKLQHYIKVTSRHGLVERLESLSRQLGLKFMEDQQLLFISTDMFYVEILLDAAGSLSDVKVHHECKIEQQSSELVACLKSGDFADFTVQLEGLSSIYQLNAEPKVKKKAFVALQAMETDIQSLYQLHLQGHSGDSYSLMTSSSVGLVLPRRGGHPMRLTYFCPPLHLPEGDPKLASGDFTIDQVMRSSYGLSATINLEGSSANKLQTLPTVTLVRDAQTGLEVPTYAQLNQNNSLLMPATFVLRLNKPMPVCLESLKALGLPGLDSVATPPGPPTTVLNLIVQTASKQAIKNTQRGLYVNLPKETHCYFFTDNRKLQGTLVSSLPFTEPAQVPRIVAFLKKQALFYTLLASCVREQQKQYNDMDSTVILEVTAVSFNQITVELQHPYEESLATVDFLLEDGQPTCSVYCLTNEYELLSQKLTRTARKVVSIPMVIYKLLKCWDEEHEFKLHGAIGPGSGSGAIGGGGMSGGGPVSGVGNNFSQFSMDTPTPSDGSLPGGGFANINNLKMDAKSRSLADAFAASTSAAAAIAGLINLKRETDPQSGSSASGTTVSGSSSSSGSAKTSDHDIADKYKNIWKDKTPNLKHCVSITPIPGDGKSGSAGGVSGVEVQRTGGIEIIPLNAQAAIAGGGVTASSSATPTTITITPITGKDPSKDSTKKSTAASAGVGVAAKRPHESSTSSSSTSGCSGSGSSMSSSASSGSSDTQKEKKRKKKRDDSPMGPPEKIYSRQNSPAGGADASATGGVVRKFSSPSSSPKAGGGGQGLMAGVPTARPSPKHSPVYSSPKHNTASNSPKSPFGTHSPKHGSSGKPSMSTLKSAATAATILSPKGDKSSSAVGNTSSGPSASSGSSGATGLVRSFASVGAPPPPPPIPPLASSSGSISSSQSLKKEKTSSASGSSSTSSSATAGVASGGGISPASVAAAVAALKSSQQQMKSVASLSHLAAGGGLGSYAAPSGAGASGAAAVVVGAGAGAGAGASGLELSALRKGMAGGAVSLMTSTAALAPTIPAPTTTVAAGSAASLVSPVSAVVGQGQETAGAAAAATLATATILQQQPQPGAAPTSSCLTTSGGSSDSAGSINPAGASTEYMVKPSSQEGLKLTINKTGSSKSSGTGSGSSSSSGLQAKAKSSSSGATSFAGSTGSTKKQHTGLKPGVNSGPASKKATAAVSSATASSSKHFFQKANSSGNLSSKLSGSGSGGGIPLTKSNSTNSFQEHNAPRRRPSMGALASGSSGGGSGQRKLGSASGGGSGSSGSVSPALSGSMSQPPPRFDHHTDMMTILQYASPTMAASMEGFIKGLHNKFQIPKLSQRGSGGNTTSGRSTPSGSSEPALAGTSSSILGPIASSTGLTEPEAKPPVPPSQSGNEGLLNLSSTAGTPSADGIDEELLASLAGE
Kind of assay: pull-down.

Assay [7] concerns the target Myc-tagged Pnr (Drosophila) (UniProt P52168). Kind of assay: co-IP.

Like-named read-outs stand apart in the source and are kept apart here. Results are given in words; binding and its absence hold for the method and conditions named. In cells and extracts the contact can be indirect. Some binding calls cover weakened binding; strength is not graded here. For part of these data: Tags and fused reporters may be left off the sequences shown.

As for “Pnr N-terminal region (amino acids 1-137) (from UniProt P52168 1-137) (domain or fragment)”, the binding entry in assay [1] is recorded as “no binding”. “Myc-tagged Pnr (from UniProt P52168 1-540)”: the binding result in assay [2] is “binds”. Turning to “in vitro-translated ^35S-Pnr (from UniProt P52168 1-540)”, the binding entry in assay [1] is reported as “binds”. The same measure, in the same setting: for “Pnr ZF-containing region (aa 130-278) (from UniProt P52168 130-278) (domain or fragment)” the value was “binds”.

B1: in vitro translated Med1^A (protein, UniProt Q9VP05 1-1475)
chain: MSGSNAKSSGTGFGSHIPSIEEKNKQIQQETMMEKLRAKYRNKPKSYEEIKKSVRMYFIEKHYPLDPLCKATLQSALDKLQHYIKVTSRHGLVERLESLSRQLGLKFMEDQQLLFISTDMFYVEILLDAAGSLSDVKVHHECKIEQQSSELVACLKSGDFADFTVQLEGLSSIYQLNAEPKVKKKAFVALQAMETDIQSLYQLHLQGHSGDSYSLMTSSSVGLVLPRRGGHPMRLTYFCPPLHLPEGDPKLASGDFTIDQVMRSSYGLSATINLEGSSANKLQTLPTVTLVRDAQTGLEVPTYAQLNQNNSLLMPATFVLRLNKPMPVCLESLKALGLPGLDSVATPPGPPTTVLNLIVQTASKQAIKNTQRGLYVNLPKETHCYFFTDNRKLQGTLVSSLPFTEPAQVPRIVAFLKKQALFYTLLASCVREQQKQYNDMDSTVILEVTAVSFNQITVELQHPYEESLATVDFLLEDGQPTCSVYCLTNEYELLSQKLTRTARKVVSIPMVIYKLLKCWDEEHEFKLHGAIGPGSGSGAIGGGGMSGGGPVSGVGNNFSQFSMDTPTPSDGSLPGGGFANINNLKMDAKSRSLADAFAASTSAAAAIAGLINLKRETDPQSGSSASGTTVSGSSSSSGSAKTSDHDIADKYKNIWKDKTPNLKHCVSITPIPGDGKSGSAGGVSGVEVQRTGGIEIIPLNAQAAIAGGGVTASSSATPTTITITPITGKDPSKDSTKKSTAASAGVGVAAKRPHESSTSSSSTSGCSGSGSSMSSSASSGSSDTQKEKKRKKKRDDSPMGPPEKIYSRQNSPAGGADASATGGVVRKFSSPSSSPKAGGGGQGLMAGVPTARPSPKHSPVYSSPKHNTASNSPKSPFGTHSPKHGSSGKPSMSTLKSAATAATILSPKGDKSSSAVGNTSSGPSASSGSSGATGLVRSFASVGAPPPPPPIPPLASSSGSISSSQSLKKEKTSSASGSSSTSSSATAGVASGGGISPASVAAAVAALKSSQQQMKSVASLSHLAAGGGLGSYAAPSGAGASGAAAVVVGAGAGAGAGASGLELSALRKGMAGGAVSLMTSTAALAPTIPAPTTTVAAGSAASLVSPVSAVVGQGQETAGAAAAATLATATILQQQPQPGAAPTSSCLTTSGGSSDSAGSINPAGASTEYMVKPSSQEGLKLTINKTGSSKSSGTGSGSSSSSGLQAKAKSSSSGATSFAGSTGSTKKQHTGLKPGVNSGPASKKATAAVSSATASSSKHFFQKANSSGNLSSKLSGSGSGGGIPLTKSNSTNSFQEHNAPRRRPSMGALASGSSGGGSGQRKLGSASGGGSGSSGSVSPALSGSMSQPPPRFDHHTDMMTILQYASPTMAASMEGFIKGLHNKFQIPKLSQRGSGGNTTSGRSTPSGSSEPALAGTSSSILGPIASSTGLTEPEAKPPVPPSQSGNEGLLNLSSTAGTPSADGIDEELLASLAGE
modifications: 35S-methionine labelled
B1: the binding entry in assay [3] was “binds”.

B2: VN-tagged Srp (protein, UniProt P52172 1-1264)
chain: MTKTTKPKEKAAAGGAVIGSGSGLGSVTKAGGGSLLSNAADSKIRTAKSNNNKRQAGRAATALAATTTASALAATTTAGATGSNAAANETEIAIETENGEAATPTAAATAAAANLSSLESARSQALTSVVSETARQAVTTANASATSTSTVTAATEIATATASDTAATSEAAIDDDPSAINTNNNNNNSKAQNDASESVKTKVISYHQSEDQQQQQQQQAQIYEQQQQFLSQQLISHHQQEQHQQAQQQQHQQVVQEQHQASWLAYDLTSGSAAAAAAAAAAASHPHLFGQFSYPPSHHTPTQLYEHYPSTDPIMRNNFAFYSVYTGGGGGVGVGMTSHEHLAAAAAAAAAVAQGTTPNIDEVIQDTLKDECFEDGHSTDYHVLTSVSDMHTLKDSSPYALTHEQLHQQQHHHQQQLHHHQQQQQQLYHQQQQQQQQQQHHHHHNNSTSSAGGDSPSSSHALSTLQSFTQLTSATQRDSLSPENDAYFAAAQLGSSLQNSSVYAGSLLTQTANGIQYGMQSPNQTQAHLQQQHHQQQQQQHQQHQQQQLQQQQQQHHHNQHQHHNSSSSSPGPAGLHHSSSSAATAAAVAAATAAVNGHNSSLEDGYGSPRSSHSGGGGGGTLPAFQRIAYPNSGSVERYAPITNYRGQNDTWFDPLSYATSSSGQAQLGVGVGAGVVSNVIRNGRAISAANAAAAAAADGTTGRVDPGTFLSASASLSAMAAESGGDFYKPNSFNVGGGGRSKANTSGAASSYSCPGSNATSAATSAVASGTAATAATTLDEHVSRANSRRLSASKRAGLSCSNCHTTHTSLWRRNPAGEPVCNACGLYYKLHSVPRPLTMKKDTIQKRKRKPKGTKSEKSKSKSKNALNAIMESGSLVTNCHNVGVVLDSSQMDVNDDMKPQLDLKPYNSYSSQPQQQLPQYQQQQQLLMADQHSSAASSPHSMGSTSLSPSAMSHQHQTHPHQQQQQQLCSGLDMSPNSNYQMSPLNMQQHQQQQSCSMQHSPSTPTSIFNTPSPTHQLHNNNNNNNNSSIFNNNNNNNSSSNENNNKLIQKYLQAQQLSSSSNSGSTSDHQLLAQLLPNSITAAAAAAAAAAAAAIKTEALSLTSQANCSTASAGLMVTSTPTTASSTLSSLSHSNIISLQNPYHQAGMTLCKPTRPSPPYYLTPEEDEQPALIKMEEMDQSQQQQQQQQHQQQQHGEIMLSRSASLDEHYELAAFQRHQQQQQQLQQQTAALLGQHEQHVTNYAMHKFGVDRETVVKME
For the molecule B2, the binding result in assay [4] is recorded as “binds”.

B3: in vitro-translated full-length Med19 (protein, UniProt Q9VVL6 1-337)
chain: MMSNYGNMMDSPKSSPHGGGRSPVVARQDSSGTLKTTISLGKTPTIIHTGPFYSMKEPPAKAELTGDKDLMTEYGLHHTLTKFKEKKFKESLASFLQNIPGINDLITHPVENSTLRSVIEKPPIGGKELLPLTPVQLAGFRLHPGPLPEQYRTTYVTPARKHKNKHKKQKHKDGVTTGQESTLLDSAGLETYEKKHKKQKRHEDDKERKKRKKEKKRKKKNQSPEPGVGLLPGGASLGGAAGVMGATSLGSLGGGPGGPGLSSLSASMGPGVVGNMNSFSSSMQMQQQQQMPMQQQQMSSGGLLGSVLGTSGGPGGGGGGGGGGGGGVGGSLLMSQF
modifications: 35S-methionine labelled
B3: the binding entry in assay [5] and in assay [6] was “binds” throughout.

B4: endogenous Drosophila Med19 (protein, UniProt Q9VVL6 1-337)
chain: MMSNYGNMMDSPKSSPHGGGRSPVVARQDSSGTLKTTISLGKTPTIIHTGPFYSMKEPPAKAELTGDKDLMTEYGLHHTLTKFKEKKFKESLASFLQNIPGINDLITHPVENSTLRSVIEKPPIGGKELLPLTPVQLAGFRLHPGPLPEQYRTTYVTPARKHKNKHKKQKHKDGVTTGQESTLLDSAGLETYEKKHKKQKRHEDDKERKKRKKEKKRKKKNQSPEPGVGLLPGGASLGGAAGVMGATSLGSLGGGPGGPGLSSLSASMGPGVVGNMNSFSSSMQMQQQQQMPMQQQQMSSGGLLGSVLGTSGGPGGGGGGGGGGGGGVGGSLLMSQF
With B4, in assay [7], the binding result is reported as “binds”.

The values are drawn from article doi:10.1101/2020.04.03.023895.
